{"source": "PubChem BioAssay (Tox21)", "note": "Values joined by “and” are separate entries in the source; they are usually repeats but may differ in a detail not shown here. Equal entries are not always repeated. This list was built around the results that the source calls inconclusive (neither active nor inactive); the mix of calls is not that of the screen. A potency beside an inconclusive call is a rough fit, not a confirmed value. Some compounds were tested as several samples or in several runs, with calls that do not always agree. Active and inactive are the calls of the source. Calls come from the whole dose curve. % is set by controls: 0 for no effect and ±100 for the full control effect; potency is the fitted concentration of half-maximal effect."}
{"assay": "p53 small molecule agonists, cell-based qHTS assay with human liver microsomes: qHTS cell viability counter screen (AID 1963579); note: nearly all actives have a fitted effect of over 45% in size", "conditions": "p53RE-bla HCT-116 viability, ATP luminescence, 16 h, HLM; series mostly up to 66 µM", "description": "National Center for Advancing Translational Sciences [NCATS]\nDivision of Preclinical Innovation [DPI]\nU.S. Environmental Protection Agency [EPA]\nNational Institutes of Environmental Health Sciences [NIEHS]\nNational Toxicology Program [NTP]\nU.S. Food and Drug Administration [FDA]\np53, a tumor suppressor protein, is activated following cellular insult, including DNA damage and other cellular stresses. The activation of p53 regulates cell fate by inducing DNA repair, cell cycle arrest, apoptosis, or cellular senescence. The activation of p53, therefore, is a good indicator of DNA damage and other cellular stresses. […] The activation of the reporter gene under culture conditions can be detected by fluorescence intensity. This cell line was used to screen the Tox21 10K compound library in the condition of presence of human liver microsomes and to identify agonists that activate the p53 signaling pathway after in vitro metabolic activation (Ooka et al., Archive of Toxicology 96:1975-1987, 2022).\nTox21 Assay Protocol Summary:\nThe p53RE-bla cells were dispensed at 4,000cells/3ul/well in 1536-well black-clear bottom plates. After the assay plates were incubated at 37 C, 5% CO2 incubator for 5 hours, 23 nL of compounds dissolved in DMSO, positive controls or DMSO only was transferred to the assay plate. Following compound addition, 3 uL of human liver microsomes (XenoTech, Kansas City, KS) at final concentration of 0.5 mg/mL and 1uL of B-Nicotinamide adenine dinucleotide 2'-phosphate (NADPH) at final concentration of 0.5 mg/mL were transferred to the assay plate. The plates were incubated at 37 C for 16 hours. 1 uL of LiveBLAzer detection mixture was added to each well and the plates were incubated at room temperature in the dark for 2 h. Fluorescence intensity at 460 and 530 nm emission and 405 nm excitation were measured by an Envision plate reader. For cell viability readout that measures cytotoxicity, 4 ul/well of CellTiter-Glo reagent was added into the assay plates using a Flying Reagent Dispenser. After 30 min incubation at room temperature, the luminescence intensity in the plates was measured using a ViewLux plate reader."}
{"smiles": "C[N+]1(CC2COC(c3ccccc3)(C3CCCCC3)O2)CCCCC1", "note": "(stereo not given)", "Potency": "inconclusive: 0.793 µM [rising, partial curve, poor fit]"}
{"smiles": "CCC(=O)OCc1ccc(OC)cc1", "Potency": "inactive"}
{"smiles": "CC(CCc1ccc(O)cc1)NCCc1ccc(O)c(O)c1", "note": "(stereo not given)", "Potency": "inconclusive: 11.2 µM [rising, full curve, poor fit]"}
{"smiles": "C[C@](N)(Cc1ccc(O)c(O)c1)C(=O)O", "Potency": "inconclusive: 0.911 µM [cytotoxic, single point]"}
{"smiles": "C/C=C/c1ccc(OCC)c(O)c1", "Potency": "inconclusive: 40.8 µM [rising, partial curve, poor fit]"}
{"smiles": "CC(C)(N=C=O)c1cccc(C(C)(C)N=C=O)c1", "Potency": "inactive"}
{"smiles": "O=C(N/N=C/c1ccccc1O)c1ccncc1", "Potency": "active: 7.93 µM"}
{"smiles": "COc1ccc(C2CNC(=O)C2)cc1OC1CCCC1", "note": "(stereo not given)", "Potency": "inconclusive: 0.0561 µM [rising, partial curve]"}
{"smiles": "CCCCCCCC[P+](CCCCCCCC)(CCCCCCCC)CCCCCCCC", "Potency": "active: 8.09 µM"}
{"smiles": "c1cnc2c(c1)ccc1cccnc12", "Potency": "active: 36.7 µM and inconclusive: 12.9 µM [cytotoxic] and inconclusive: 14.5 µM [cytotoxic, full curve]"}
{"smiles": "CC(C)NC(=O)NC(C)C", "Potency": "inconclusive: 45.8 µM [cytotoxic, single point]"}
{"smiles": "CCC(C)Nc1ccc(NC(C)CC)cc1", "note": "(stereo not given)", "Potency": "active: 2.08 µM"}
{"smiles": "Cc1nc(Nc2ncc(C(=O)Nc3c(C)cccc3Cl)s2)cc(N2CCN(CCO)CC2)n1", "Potency": "inconclusive: 0.63 µM [rising, partial curve, poor fit]"}
{"smiles": "O=C(N[C@H](CO)[C@H](O)c1ccc([N+](=O)[O-])cc1)C(Cl)Cl", "Potency": "inconclusive: 51.3 µM [rising, single point]"}
{"smiles": "COC(=O)Nc1nc2ccc(C(=O)C3CC3)cc2[nH]1", "Potency": "inconclusive: 1.12 µM [rising, full curve]"}
{"smiles": "CC(C)Cc1ccc(C(C)C(=O)O)cc1", "note": "(stereo not given)", "Potency": "inconclusive: 0.446 µM [cytotoxic, single point]"}
{"smiles": "CCCCCCCCCCCCCC[N+](C)(C)Cc1ccccc1", "Potency": "active: 17800 µM"}
{"smiles": "CC1=C(/C=C/C(C)=C/C=C/C(C)=C/C(=O)Nc2ccc(O)cc2)C(C)(C)CCC1", "Potency": "active: 41.8 µM"}
{"smiles": "Cn1sccc1=O", "Potency": "active: 28.9 µM and inactive"}
{"smiles": "C=C(C)C(=O)OCC(CC)(COC(=O)C(=C)C)COC(=O)C(=C)C", "Potency": "inactive"}
{"smiles": "CCOc1ccc(NC(C)=O)cc1N", "Potency": "inconclusive: 46.4 µM [cytotoxic, single point]"}
{"smiles": "CCCCN(CCCC)c1ccc(C(=O)c2ccccc2C(=O)O)c(O)c1", "Potency": "active: 16.4 µM"}
{"smiles": "C=C1C(CCl)(CCl)C2(Cl)C(Cl)C(Cl)C1(Cl)C2(Cl)Cl", "note": "(stereo not given)", "Potency": "inconclusive: 45.2 µM [cytotoxic, single point]"}
{"smiles": "C=C(C)C(=O)OCCOP(=O)(O)OCCOC(=O)C(=C)C", "Potency": "inactive"}
{"smiles": "CO[C@@H]1[C@@H](OC)[C@H](C)[C@@](O)(CC(=O)O)O[C@H]1[C@H](C)[C@H]1O[C@@]2(CC[C@@](C)([C@H]3CC[C@@](C)([C@@H]4O[C@@H]([C@H]5O[C@](C)(O)[C@H](C)C[C@@H]5C)C[C@@H]4OC4C[C@H](OC)[C@@H](OC)[C@H](C)O4)O3)O2)C[C@H](O)[C@H]1C", "note": "(stereo not given in full)", "Potency": "inconclusive: 0.89 µM [rising, partial curve]"}
{"smiles": "Cc1cc(Cc2cc(C)cc(C(C)(C)C)c2O)c(O)c(C(C)(C)C)c1", "Potency": "inconclusive: 20.5 µM [cytotoxic, single point] and inconclusive: 11.5 µM [cytotoxic, full curve]"}
{"smiles": "NC(=O)N/N=C/c1ccc([N+](=O)[O-])o1", "Potency": "inconclusive: 40.8 µM [cytotoxic, partial curve, poor fit]"}
{"smiles": "CCCCCOC(=O)Nc1nc(=O)n([C@@H]2O[C@H](C)[C@@H](O)[C@H]2O)cc1F", "Potency": "inconclusive: 0.199 µM [cytotoxic, single point]"}
{"smiles": "CC(O)(c1ccc(Cl)cc1)c1ccc(Cl)cc1", "Potency": "active: 45.8 µM"}
{"smiles": "C=CC(C)(CCC=C(C)C)OC(=O)/C=C/c1ccccc1", "note": "(stereo not given)", "Potency": "inconclusive: 51.3 µM [cytotoxic, single point]"}
{"smiles": "c1ccc(Nc2cccc3ccccc23)cc1", "Potency": "active: 46.4 µM and inconclusive: 45.8 µM [cytotoxic, single point]"}
{"smiles": "NC(=O)N[C@@H](CCC(=O)O)C(=O)O", "Potency": "inactive"}
{"smiles": "C=C(C)C(=O)OCCCCCCCCCC", "Potency": "inconclusive: 29.1 µM [cytotoxic, partial curve]"}
{"smiles": "C[C@@H]1CN(c2c(F)c(F)c3c(=O)c(C(=O)O)cn(C4CC4)c3c2F)C[C@H](C)N1", "activity change, negative = cytotoxicity": "inactive: 0.644% [at 13.5 µM]"}
{"smiles": "CCCCCC(C)=O", "Potency": "active: 12.9 µM"}
{"smiles": "C[C@H]1NCc2cc(-c3ccc4c(=O)c(C(=O)O)cn(C5CC5)c4c3OC(F)F)ccc21", "activity change, negative = cytotoxicity": "inactive: -4.1% [at 13.5 µM]"}
{"smiles": "O=C(O)c1ccccc1-c1ccc(C(F)(F)F)cc1", "Potency": "inconclusive: 8.9 µM [cytotoxic, single point]"}
{"smiles": "CC1=C2[C@H](/C=C(\\C)C(=O)O)CC[C@@H](C)[C@H]2CC1", "Potency": "active: 29.9 µM"}
{"smiles": "Nc1ccc2cc3ccc(N)cc3nc2c1", "Potency": "inconclusive: 1.82 µM [cytotoxic, full curve]"}
{"smiles": "O=CC1CC=CCC1", "note": "(stereo not given)", "Potency": "inactive"}
